Reference: US20220403031A1
No constants are given. Whether binding was seen depends on the method and setting. Some results given as binding are weak or reduced against the parent protein; the word gives no strength.

By UniProt entry, the sequences of proteins in these tests, tags left out. Where a name states a change or a piece, a line headed by the entry shows the natural chain unless it says otherwise. Chains listed by the source or under a name are the forms on record and can include a tag or linker.
cynomolgus monkey PD-L1 on 293F cells (W315-293F.cynoPro1.2A2) (G7PSE7, form named): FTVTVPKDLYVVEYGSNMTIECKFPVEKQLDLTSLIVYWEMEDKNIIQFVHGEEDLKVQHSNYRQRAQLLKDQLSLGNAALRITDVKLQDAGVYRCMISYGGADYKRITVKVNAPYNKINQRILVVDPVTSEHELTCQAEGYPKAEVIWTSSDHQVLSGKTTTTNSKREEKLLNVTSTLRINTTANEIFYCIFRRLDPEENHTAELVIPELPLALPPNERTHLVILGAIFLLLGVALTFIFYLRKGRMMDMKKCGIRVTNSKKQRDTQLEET

Experiments:
[1] = target: cynomolgus monkey PD-L1 on 293F cells (W315-293F.cynoPro1.2A2) (cynomolgus monkey) (UniProt G7PSE7); test: FACS on cynomolgus PD-L1 293F cells
[2] = target: cynomolgus monkey PD-L1 on 293F cells (W315-293F.cynoPro1.2A2) (cynomolgus monkey) (UniProt G7PSE7); test: FACS affinity on PD-L1 cells

B1: AP3R2-1A3-z12-hIgG1 (Fc fusion, not shown: a dimerising Fc or GST)
chain: EVQLVESGGGLVQPGGSLRLSCAASGHFSNLAVNWFRQAPGKERELVAGILWSGGSTFYADSVKGRFTISRGNAENMLYLQMNSLRAEDTAVYYCNTGTNWGQGTLVTVSS
[1]
  binding: binds
[2]
  binding: binds
